This note sets out measurements from publication PMC9345960, “ERK1/2 inhibits Cullin 3/SPOP-mediated PrLZ ubiquitination and degradation to modulate prostate cancer progression” (Cell Death and Differentiation, 2022).

Amino acid sequences for entries named in this document (tags omitted). A change or cut given only in a name is not applied to a line headed by its entry.
UniProt O43791: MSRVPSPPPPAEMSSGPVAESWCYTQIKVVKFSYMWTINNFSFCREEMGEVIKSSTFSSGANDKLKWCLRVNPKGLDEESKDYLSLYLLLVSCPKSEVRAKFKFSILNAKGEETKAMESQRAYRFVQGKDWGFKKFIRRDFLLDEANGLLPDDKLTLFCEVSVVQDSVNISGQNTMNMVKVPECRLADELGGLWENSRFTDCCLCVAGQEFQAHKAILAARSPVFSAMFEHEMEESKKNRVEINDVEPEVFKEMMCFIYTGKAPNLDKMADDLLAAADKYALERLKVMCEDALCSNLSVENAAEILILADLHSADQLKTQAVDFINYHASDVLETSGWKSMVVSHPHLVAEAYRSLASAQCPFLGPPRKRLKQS

For this assay, the target named is HA-SPOP F133V (UniProt O43791). Description: co-IP; anti-HA agarose IP (4 h, 4 °C, EBC lysis buffer) from transfected 293T cells: HA-PrLZ with Flag-tagged BTB proteins (Fig. 2a), HA-SPOP WT or mutants with Flag-PrLZ (Fig. 3d), HA-ERK1 or HA-ERK2 with Flag-PrLZ (Fig. 5e); in some panels 20 μM MG132 for 6 h.

No constants are given. Whether binding was seen depends on the method and setting. In cells and extracts the contact can be indirect. Sequences can lack the tags named with a protein.

B1: GST-PrLZ, wild type (bacterial) (natural protein, UniProt P55327 1-224, looked up)
chain: MDCREMDLYEDYQSPFDFDAGVNKSYLYLSPSGNSSPPGSPTLQKFGLLRTDPVPEEGEDVAATISATETLSEEEQEELRRELAKVEEEIQTLSQVLAAKEKHLAEIKRKLGINSLQELKQNIAKGWQDVTATSAYKKTSETLSQAGQKASAAFSSVGSVITKKLEDVKNSPTFKSFEEKVENLKSKVGGTKPAGGDFGEVLNSAANASATTTEPLPEKTQESL
notes: Prostate Leucine Zipper (PrLZ); also called GST-PrLZ WT; pGEX-4T-1-GST-PrLZ; source: E. coli BL21, purified (Glutathione Sepharose 4B)
Regarding B1, the binding entry was “no binding”.
